The supplement of paper PMC10849652
This is one part of the list.

Sequences of proteins named here, by UniProt entry; tags and fusion partners are left off. A change or cut given only in a name is not applied to a line headed by its entry.
UniProt Q9H425: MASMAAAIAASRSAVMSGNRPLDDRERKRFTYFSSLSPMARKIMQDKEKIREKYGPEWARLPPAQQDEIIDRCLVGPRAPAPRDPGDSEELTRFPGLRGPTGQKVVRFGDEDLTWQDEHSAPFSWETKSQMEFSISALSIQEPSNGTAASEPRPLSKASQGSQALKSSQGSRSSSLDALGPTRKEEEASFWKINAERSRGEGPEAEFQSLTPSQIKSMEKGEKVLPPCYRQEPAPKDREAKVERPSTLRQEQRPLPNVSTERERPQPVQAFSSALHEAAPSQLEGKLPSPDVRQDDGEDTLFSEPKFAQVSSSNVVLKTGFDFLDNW
UniProt Q96N11, whole entry, looked up: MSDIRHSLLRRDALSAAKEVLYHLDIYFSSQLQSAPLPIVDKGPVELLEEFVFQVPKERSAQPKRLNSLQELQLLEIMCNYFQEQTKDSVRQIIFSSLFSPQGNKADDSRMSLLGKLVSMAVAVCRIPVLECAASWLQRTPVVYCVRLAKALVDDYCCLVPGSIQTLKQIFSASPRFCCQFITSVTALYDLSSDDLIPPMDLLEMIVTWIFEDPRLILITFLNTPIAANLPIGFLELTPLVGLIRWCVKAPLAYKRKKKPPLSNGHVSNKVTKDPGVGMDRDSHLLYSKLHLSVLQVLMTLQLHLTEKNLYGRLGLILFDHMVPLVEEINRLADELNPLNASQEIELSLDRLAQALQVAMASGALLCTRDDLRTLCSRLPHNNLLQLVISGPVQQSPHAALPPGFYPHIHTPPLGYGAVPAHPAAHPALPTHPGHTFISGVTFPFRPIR
UniProt Q9BUW7: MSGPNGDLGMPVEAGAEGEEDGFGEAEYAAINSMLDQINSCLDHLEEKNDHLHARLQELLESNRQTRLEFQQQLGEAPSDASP
UniProt Q06187: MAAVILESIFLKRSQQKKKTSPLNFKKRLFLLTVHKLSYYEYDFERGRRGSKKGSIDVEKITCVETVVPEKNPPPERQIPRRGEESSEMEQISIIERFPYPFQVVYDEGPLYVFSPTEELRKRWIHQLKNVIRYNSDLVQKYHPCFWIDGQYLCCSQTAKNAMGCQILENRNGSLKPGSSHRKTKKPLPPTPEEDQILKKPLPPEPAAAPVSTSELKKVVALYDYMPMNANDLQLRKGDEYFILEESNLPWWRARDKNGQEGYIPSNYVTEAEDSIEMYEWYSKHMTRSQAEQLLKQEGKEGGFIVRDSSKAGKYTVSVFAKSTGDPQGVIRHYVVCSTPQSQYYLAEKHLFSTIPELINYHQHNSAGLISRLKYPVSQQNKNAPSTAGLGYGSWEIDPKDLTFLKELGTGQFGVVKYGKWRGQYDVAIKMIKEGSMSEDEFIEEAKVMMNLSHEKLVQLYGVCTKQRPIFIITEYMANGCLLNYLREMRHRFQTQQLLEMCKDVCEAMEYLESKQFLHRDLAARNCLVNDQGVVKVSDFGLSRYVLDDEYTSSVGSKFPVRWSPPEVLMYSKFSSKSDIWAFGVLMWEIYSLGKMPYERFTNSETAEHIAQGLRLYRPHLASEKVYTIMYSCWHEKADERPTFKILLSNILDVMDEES
UniProt Q3KRA6: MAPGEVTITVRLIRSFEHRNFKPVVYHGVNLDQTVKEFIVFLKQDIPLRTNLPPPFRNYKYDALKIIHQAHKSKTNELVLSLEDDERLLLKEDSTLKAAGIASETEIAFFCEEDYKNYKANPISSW
UniProt Q5U649: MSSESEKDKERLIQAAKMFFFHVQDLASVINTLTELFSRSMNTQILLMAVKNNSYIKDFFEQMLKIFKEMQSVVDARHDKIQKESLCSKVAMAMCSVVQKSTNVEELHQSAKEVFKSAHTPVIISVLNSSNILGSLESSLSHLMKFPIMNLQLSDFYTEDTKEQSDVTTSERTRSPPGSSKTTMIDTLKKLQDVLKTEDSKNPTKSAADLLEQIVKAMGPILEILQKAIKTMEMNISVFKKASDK
UniProt Q5SNV9: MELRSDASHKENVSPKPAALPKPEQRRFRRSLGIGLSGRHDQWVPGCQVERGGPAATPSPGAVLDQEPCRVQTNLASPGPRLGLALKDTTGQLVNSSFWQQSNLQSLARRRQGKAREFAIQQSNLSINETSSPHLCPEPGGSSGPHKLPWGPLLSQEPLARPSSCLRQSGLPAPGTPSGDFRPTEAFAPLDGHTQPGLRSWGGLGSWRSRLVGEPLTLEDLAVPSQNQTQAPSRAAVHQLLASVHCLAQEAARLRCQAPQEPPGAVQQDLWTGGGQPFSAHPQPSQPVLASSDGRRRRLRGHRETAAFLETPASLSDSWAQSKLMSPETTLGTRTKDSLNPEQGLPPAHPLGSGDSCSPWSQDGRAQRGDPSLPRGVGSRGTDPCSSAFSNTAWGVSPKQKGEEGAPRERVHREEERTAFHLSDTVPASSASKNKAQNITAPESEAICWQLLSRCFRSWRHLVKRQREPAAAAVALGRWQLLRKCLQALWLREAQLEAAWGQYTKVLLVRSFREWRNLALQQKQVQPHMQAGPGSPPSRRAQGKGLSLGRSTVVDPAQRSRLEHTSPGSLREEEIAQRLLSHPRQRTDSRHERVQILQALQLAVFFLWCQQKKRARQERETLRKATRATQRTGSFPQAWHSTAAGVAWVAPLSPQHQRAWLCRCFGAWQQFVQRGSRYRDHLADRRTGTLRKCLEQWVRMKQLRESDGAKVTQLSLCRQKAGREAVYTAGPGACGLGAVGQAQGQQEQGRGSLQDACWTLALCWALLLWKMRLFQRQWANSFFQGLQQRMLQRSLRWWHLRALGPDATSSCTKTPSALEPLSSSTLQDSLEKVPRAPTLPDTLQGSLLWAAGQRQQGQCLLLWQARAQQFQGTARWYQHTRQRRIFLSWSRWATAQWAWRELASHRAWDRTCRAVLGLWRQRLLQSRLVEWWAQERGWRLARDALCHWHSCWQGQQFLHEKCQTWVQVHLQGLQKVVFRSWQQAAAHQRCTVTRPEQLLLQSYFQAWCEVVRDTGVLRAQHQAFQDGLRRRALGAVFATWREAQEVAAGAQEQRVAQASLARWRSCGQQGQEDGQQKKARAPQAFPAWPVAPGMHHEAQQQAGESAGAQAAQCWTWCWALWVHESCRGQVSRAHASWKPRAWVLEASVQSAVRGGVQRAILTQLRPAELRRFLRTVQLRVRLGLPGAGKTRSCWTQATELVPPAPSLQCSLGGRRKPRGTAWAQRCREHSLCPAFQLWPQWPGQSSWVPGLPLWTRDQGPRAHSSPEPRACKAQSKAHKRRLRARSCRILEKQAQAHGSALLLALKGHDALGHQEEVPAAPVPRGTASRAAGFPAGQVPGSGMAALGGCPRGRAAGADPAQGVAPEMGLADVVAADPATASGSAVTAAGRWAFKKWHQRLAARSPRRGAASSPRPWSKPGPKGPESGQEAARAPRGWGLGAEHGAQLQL
UniProt Q9H9S4: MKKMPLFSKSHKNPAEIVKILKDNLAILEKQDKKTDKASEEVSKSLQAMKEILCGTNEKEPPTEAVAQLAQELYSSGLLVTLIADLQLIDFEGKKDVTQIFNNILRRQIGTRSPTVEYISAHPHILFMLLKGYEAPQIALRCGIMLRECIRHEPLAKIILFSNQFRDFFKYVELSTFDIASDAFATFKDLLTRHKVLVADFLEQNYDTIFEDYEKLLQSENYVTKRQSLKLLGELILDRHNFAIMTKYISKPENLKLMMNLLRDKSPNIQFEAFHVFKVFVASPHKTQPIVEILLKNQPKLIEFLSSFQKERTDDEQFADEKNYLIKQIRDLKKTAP
UniProt O75808: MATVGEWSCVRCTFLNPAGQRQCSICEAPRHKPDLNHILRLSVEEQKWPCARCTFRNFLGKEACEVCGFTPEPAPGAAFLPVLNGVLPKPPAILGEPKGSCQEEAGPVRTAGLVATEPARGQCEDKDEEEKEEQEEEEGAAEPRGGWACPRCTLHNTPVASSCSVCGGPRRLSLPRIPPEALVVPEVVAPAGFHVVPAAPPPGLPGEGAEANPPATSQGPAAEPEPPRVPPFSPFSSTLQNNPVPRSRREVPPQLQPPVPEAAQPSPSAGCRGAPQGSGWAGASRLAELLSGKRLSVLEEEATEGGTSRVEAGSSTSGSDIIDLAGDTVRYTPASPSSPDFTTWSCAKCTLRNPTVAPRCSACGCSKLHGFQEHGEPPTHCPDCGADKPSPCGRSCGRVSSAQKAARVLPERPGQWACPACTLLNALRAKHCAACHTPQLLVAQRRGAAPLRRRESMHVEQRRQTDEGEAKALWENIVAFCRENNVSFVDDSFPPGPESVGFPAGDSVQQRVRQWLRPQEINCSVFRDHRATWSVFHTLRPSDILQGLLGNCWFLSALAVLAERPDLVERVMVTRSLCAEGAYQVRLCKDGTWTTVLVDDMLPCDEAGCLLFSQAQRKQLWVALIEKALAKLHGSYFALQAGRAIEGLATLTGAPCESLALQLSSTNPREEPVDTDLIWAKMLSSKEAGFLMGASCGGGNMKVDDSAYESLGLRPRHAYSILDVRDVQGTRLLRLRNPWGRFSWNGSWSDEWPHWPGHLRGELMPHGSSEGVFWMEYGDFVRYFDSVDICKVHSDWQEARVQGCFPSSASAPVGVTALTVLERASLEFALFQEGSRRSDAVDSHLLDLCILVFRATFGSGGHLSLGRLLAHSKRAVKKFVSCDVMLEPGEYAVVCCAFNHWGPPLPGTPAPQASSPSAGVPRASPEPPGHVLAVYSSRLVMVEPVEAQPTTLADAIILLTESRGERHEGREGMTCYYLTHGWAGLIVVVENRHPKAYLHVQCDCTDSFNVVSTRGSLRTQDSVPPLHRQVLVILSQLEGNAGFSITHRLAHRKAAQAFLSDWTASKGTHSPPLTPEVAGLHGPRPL
UniProt P0DMB2: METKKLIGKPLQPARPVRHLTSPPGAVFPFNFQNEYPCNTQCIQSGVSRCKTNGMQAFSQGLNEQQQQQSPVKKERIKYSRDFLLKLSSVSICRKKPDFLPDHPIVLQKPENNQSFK
UniProt Q5SQH8: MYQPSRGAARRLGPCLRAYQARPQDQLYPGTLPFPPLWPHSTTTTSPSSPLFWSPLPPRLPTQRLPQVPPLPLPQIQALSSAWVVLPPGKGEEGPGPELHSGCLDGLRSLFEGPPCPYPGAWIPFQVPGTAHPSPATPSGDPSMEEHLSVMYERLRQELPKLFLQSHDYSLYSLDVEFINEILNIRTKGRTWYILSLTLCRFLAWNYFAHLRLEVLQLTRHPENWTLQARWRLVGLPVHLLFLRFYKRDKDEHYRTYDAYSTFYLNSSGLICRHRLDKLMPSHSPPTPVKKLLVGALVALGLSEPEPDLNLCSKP
UniProt Q9H8G2: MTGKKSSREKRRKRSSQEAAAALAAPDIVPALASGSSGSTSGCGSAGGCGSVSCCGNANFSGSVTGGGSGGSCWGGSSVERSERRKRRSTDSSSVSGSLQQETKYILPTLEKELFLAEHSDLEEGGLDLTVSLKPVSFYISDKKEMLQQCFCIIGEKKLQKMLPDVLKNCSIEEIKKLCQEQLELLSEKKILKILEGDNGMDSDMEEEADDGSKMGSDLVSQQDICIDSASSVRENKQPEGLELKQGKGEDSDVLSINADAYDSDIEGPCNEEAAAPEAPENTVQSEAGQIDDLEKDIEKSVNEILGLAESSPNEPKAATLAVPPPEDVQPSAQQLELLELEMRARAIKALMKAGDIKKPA
UniProt Q5JPI3: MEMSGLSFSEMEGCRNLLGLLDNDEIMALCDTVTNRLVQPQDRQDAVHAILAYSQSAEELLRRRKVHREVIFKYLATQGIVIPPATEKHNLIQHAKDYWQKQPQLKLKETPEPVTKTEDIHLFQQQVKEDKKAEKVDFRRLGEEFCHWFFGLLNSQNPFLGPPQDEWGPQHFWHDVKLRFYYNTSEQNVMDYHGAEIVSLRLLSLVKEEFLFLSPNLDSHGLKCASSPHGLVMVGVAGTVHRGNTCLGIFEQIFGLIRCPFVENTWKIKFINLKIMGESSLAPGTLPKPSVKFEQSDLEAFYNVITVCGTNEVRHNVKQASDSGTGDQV
UniProt Q96F05: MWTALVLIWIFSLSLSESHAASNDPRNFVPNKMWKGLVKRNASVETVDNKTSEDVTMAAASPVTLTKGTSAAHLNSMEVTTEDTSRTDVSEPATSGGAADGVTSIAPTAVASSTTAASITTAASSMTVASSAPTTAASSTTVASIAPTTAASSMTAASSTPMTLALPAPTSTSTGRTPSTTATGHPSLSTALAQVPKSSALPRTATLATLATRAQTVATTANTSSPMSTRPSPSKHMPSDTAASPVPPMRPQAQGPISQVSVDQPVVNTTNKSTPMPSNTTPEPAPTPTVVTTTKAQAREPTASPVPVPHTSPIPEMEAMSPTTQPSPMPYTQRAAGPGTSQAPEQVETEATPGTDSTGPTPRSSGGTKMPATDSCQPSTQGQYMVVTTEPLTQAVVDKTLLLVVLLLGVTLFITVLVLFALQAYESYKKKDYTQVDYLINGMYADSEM
UniProt Q9NSK7: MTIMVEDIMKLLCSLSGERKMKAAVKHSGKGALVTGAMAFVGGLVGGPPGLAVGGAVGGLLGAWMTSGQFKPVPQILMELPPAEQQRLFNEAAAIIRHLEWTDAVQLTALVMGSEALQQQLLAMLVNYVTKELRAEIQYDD

Experiments:
Experiment in all cases: log2 fold change, soluble protein after heating vs DMSO (PISA); higher = thermal stabilisation; K562 cells, 10 uM, 30 min; active = over 0.2 and 3.5 SD of the protein, either way, in both replicates (recomputed)
bafetinib = compound: Cc1ccc(NC(=O)c2ccc(CN3CC[C@H](N(C)C)C3)c(C(F)(F)F)c2)cc1Nc1nccc(-c2cncnc2)n1 [bafetinib]
How it was run: (§1)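 K562 cells (2×10^6 cells/mL) were treated with 10 μM compound for 30 min, and aliquots were heated for 3 min over 48°C-58°C. Pooled aliquots were extracted in PBS with 0.5% NP-40 at 4°C, and the supernatant after 21,000xg for 90 min was measured by TMTpro 16plex LC-MS/MS with channel sums equalised. Reported thermal stability, relative to control samples and from duplicates, is a log2 fold change.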

[1] = compound: Cc1cccc(CC(=O)N2CCc3c2ccc(-c2cn(C)c4ncnc(N)c24)c3F)n1
How it was run: as §1

nilotinib = compound: Cc1cn(-c2cc(NC(=O)c3ccc(C)c(Nc4nccc(-c5cccnc5)n4)c3)cc(C(F)(F)F)c2)cn1 [nilotinib]
How it was run: as §1

[2] = compound: Cc1nc(Nc2n[nH]c3c2CN(C(=O)N[C@H](CN(C)C)c2ccccc2)C3(C)C)c2sccc2n1
How it was run: as §1

dasatinib = compound: Cc1nc(Nc2ncc(C(=O)Nc3c(C)cccc3Cl)s2)cc(N2CCN(CCO)CC2)n1 [dasatinib]
How it was run: as §1

[3] = compound: Cc1ncc(-c2ccnc(Nc3ccc(S(C)(=O)=O)cc3)n2)n1C(C)C
How it was run: as §1

[4] = compound: Cn1cc(-c2ccc3c(c2)CCN3C(=O)Cc2cccc(C(F)(F)F)c2)c2c(N)ncnc21
How it was run: as §1

[5] = compound: Cn1cc(-c2ccc3nnc(C(F)(F)c4ccc5ncccc5c4)n3n2)cn1
How it was run: as §1

tipifarnib = compound: Cn1cncc1[C@@](N)(c1ccc(Cl)cc1)c1ccc2c(c1)c(-c1cccc(Cl)c1)cc(=O)n2C [tipifarnib]
How it was run: as §1

mubritinib = compound: FC(F)(F)c1ccc(/C=C/c2nc(COc3ccc(CCCCn4ccnn4)cc3)co2)cc1 [mubritinib]
How it was run: as §1

[6] = compound: NC(=O)Nc1cc(-c2cccc(F)c2)sc1C(=O)N[C@H]1CCCNC1
How it was run: as §1

[7] = compound: NC(=O)c1cnc(N[C@@H]2CCCC[C@@H]2N)nc1Nc1cccc(-n2nccn2)c1
How it was run: as §1

[8] = compound: NC1(c2ccc(-c3nc4ccn5c(=O)[nH]nc5c4cc3-c3ccccc3)cc2)CCC1
How it was run: as §1

[9] = compound: NCC(=O)Nc1ccc(-n2nc(C(F)(F)F)cc2-c2ccc3c(ccc4ccccc43)c2)cc1
How it was run: as §1

entinostat = compound: Nc1ccccc1NC(=O)c1ccc(CNC(=O)OCc2cccnc2)cc1 [entinostat]
How it was run: as §1

vorinostat = compound: O=C(CCCCCCC(=O)Nc1ccccc1)NO [vorinostat]
How it was run: as §1

citarinostat = compound: O=C(CCCCCCNC(=O)c1cnc(N(c2ccccc2)c2ccccc2Cl)nc1)NO [citarinostat]
How it was run: as §1

silmitasertib = compound: O=C(O)c1ccc2c(c1)nc(Nc1cccc(Cl)c1)c1ccncc12 [silmitasertib]
How it was run: as §1

[10] = compound: O=C1NC(=O)C(c2cnc3ccccn23)=C1c1cn2c3c(cc(F)cc13)CN(C(=O)N1CCCCC1)CC2
How it was run: as §1

[11] = compound: c1cc(OCCN2CCCCC2)cc(-c2n[nH]c3ccc(-c4nnc[nH]4)cc23)c1
How it was run: as §1

Measured: log2 fold change

CALM2 (UniProt P0DP24)
inactive: bafetinib -0.025 | [1] 0.042 | nilotinib 0.033 | [2] 0.017 | dasatinib 0.031 | [3] 0 | [4] 0.018 | [5] -0.025 | tipifarnib -0.022 | mubritinib 0.015 | [6] 0.08 | [7] 0.012 | [8] -0.028 | [9] 0.047 | entinostat -0.01 | vorinostat -0.026 | citarinostat 0.086 | silmitasertib -0.045 | [10] 0 | [11] 0.021

C1orf198 (UniProt Q9H425)
inactive: bafetinib -0.141 | [1] -0.074 | nilotinib 0.026 | [2] -0.039 | dasatinib -0.126 | [3] 0.032 | [4] 0.047 | [5] -0.058 | tipifarnib 0.046 | mubritinib 0 | [6] -0.032 | [7] 0.063 | [8] -0.058 | [9] 0.027 | entinostat 0.047 | vorinostat 0.019 | citarinostat 0.212 | silmitasertib 0.04 | [10] 0.068 | [11] -0.127

BTF3 (UniProt P20290)
inactive: bafetinib -0.012 | [1] -0.058 | nilotinib -0.007 | [2] 0.014 | dasatinib 0.059 | [3] -0.042 | [4] 0.009 | [5] -0.02 | tipifarnib -0.009 | mubritinib -0.003 | [6] 0.035 | [7] 0.096 | [8] 0.069 | [9] 0.065 | entinostat -0.003 | vorinostat -0.039 | citarinostat -0.008 | silmitasertib -0.057 | [10] -0.023 | [11] 0.018

C7orf26 (UniProt Q96N11)
inactive: bafetinib -0.074 | nilotinib -0.325 | [2] 0.005 | [3] 0 | [5] -0.008 | [6] -0.056 | [9] -0.026 | entinostat 0 | [10] 0.163

C9orf16 (UniProt Q9BUW7)
inactive: [1] -0.323 | nilotinib -0.064 | [2] -0.057 | dasatinib 0.107 | [3] 0.03 | mubritinib -0.019 | [8] 0.019 | vorinostat -0.02 | silmitasertib -0.069

BTK isoform 2 (UniProt Q06187)
inactive: [1] -0.074 | nilotinib -0.076 | [2] -0.084 | [3] 0.087 | [4] -0.261 | [5] -0.245 | mubritinib -0.029 | [6] 0.071 | [7] 0.008 | [8] 0.264 | [9] 0.481 | entinostat 0.073 | vorinostat -0.025 | silmitasertib 0.176 | [10] 0.161

C2orf76 (UniProt Q3KRA6)
inactive: bafetinib -0.004 | dasatinib -0.136 | mubritinib -0.079 | [6] 0.023 | [7] -0.172 | [8] 0.06 | [9] 0.087 | entinostat -0.027 | citarinostat 0.267 | silmitasertib 0.112 | [11] -0.043

C12orf60 (UniProt Q5U649)
inactive: bafetinib -0.165 | tipifarnib -0.14 | [10] -0.106

C1orf159 isoform 4 (UniProt Q96HA4)
inactive: bafetinib 0.064 | [1] -0.101 | [4] 0.121 | [6] 0.205 | [9] -0.157 | entinostat -0.002 | vorinostat -0.042

2 consecutive records out of the list so far, for reference:
C2orf76 (UniProt Q3KRA6)
inactive: bafetinib -0.004 | dasatinib -0.136 | mubritinib -0.079 | [6] 0.023 | [7] -0.172 | [8] 0.06 | [9] 0.087 | entinostat -0.027 | citarinostat 0.267 | silmitasertib 0.112 | [11] -0.043

C12orf60 (UniProt Q5U649)
inactive: bafetinib -0.165 | tipifarnib -0.14 | [10] -0.106

(next part)

C1orf167 isoform 2 (UniProt Q5SNV9)
inactive: bafetinib 0.265 | nilotinib -0.041 | [2] 0.051 | dasatinib -0.079 | [3] -0.002 | [4] -0.138 | tipifarnib 0.247 | mubritinib -0.202 | [6] -0.163 | [8] 0.007 | [9] -0.489 | entinostat -0.038 | silmitasertib 0.086 | [10] 0.034

CAB39L (UniProt Q9H9S4)
inactive: bafetinib -0.055 | [1] -0.041 | dasatinib -0.255 | [5] -0.032 | tipifarnib 0.042 | [6] 0.035 | [7] 0.083 | [9] -0.162 | entinostat -0.016 | vorinostat -0.197 | citarinostat -0.093 | [10] -0.043 | [11] -0.101

CAPN15 (UniProt O75808)
inactive: bafetinib -0.007 | [1] -0.136 | tipifarnib 0.015 | [6] -0.065 | entinostat 0.052 | vorinostat 0.064 | [10] -0.142

C8orf88 (UniProt P0DMB2)
inactive: bafetinib -0.156 | [1] -0.029 | [4] -0.436 | [5] -0.055 | tipifarnib 0.088 | mubritinib 0.23 | [7] -0.532 | [8] -0.07 | [9] -0.22 | vorinostat -0.029 | silmitasertib 0.195 | [10] 0.01

C6orf136 isoform 4 (UniProt Q5SQH8)
inactive: bafetinib -0.275 | nilotinib -0.333 | [2] 0.018 | dasatinib -0.149 | [3] -0.011 | [5] 0.101 | mubritinib 0.42 | [6] -0.08 | [7] 0.035 | [8] 0.01 | entinostat 0.072 | citarinostat 0.119 | silmitasertib -0.444 | [11] -0.137

CAAP1 (UniProt Q9H8G2)
inactive: bafetinib 0.009 | nilotinib -0.011 | [2] 0.099 | dasatinib 0.078 | [3] 0.021 | [4] -0.142 | [5] -0.043 | tipifarnib 0.122 | [6] -0.015 | [7] -0.022 | [9] -0.117 | entinostat -0.014 | citarinostat -0.006 | [10] -0.312 | [11] -0.122

CA2 (UniProt P00918)
inactive: bafetinib -0.192 | [2] 0.014 | dasatinib 0.2 | [3] 0.11 | tipifarnib -0.026 | mubritinib 0.045 | [7] 0.161 | [8] -0.023 | [9] -0.139 | citarinostat -0.287 | silmitasertib -0.108 | [11] 0.085

C3orf38 (UniProt Q5JPI3)
inactive: bafetinib -0.031 | nilotinib -0.104 | [2] -0.023 | dasatinib -0.2 | [3] 0.064 | [4] -0.039 | [5] 0.026 | tipifarnib 0.044 | mubritinib -0.218 | [6] -0.049 | [7] -0.267 | [8] -0.082 | [9] -0.256 | entinostat 0.049 | citarinostat -0.164 | silmitasertib 0.347 | [10] 0.018 | [11] -0.202

C11orf24 (UniProt Q96F05)
inactive: bafetinib -0.16 | [5] -0.046 | [6] 0.014 | [7] -0.092 | entinostat -0.115 | [10] 0.112

BTBD10 isoform 2 (UniProt Q9BSF8)
inactive: [1] -0.227 | dasatinib 0.113 | tipifarnib 0.158 | [7] 0.158 | vorinostat -0.187

C19orf12 (UniProt Q9NSK7)
inactive: bafetinib -0.003 | nilotinib -0.006 | [2] 0.089 | [3] 0.101 | tipifarnib -0.079 | mubritinib 0.061 | [7] -0.048 | [8] -0.078 | citarinostat 0.14 | silmitasertib -0.023 | [10] -0.296 | [11] -0.035

CAPN1 (UniProt E9PLX0)
inactive: bafetinib -0.059 | [6] -0.074 | entinostat 0.103 | citarinostat 0.032 | [11] -0.21
